Results are given in words; binding and its absence hold for the method and conditions named. Some binding calls cover weakened binding; strength is not graded here. For part of these data: Sequences can lack the tags named with a protein. Blank lines part the entries; values can stand above or below the molecule they belong to.
Columns and labels:
[1] = molecular target: soluble recombinant integrin αIIbβ3 (ectodomain) (UniProt P08514); experiment: ELISA
[2] = molecular target: T1, Fibrinogen γ-chain C-terminal residues 390-411 fused to GST (γC390-411); experiment: ELISA
T1 sequence: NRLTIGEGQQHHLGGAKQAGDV

Amino acid sequences for entries named in this document (tags omitted). A change or cut given only in a name is not applied to a line headed by its entry. Residues count along the entry.
UniProt P08514: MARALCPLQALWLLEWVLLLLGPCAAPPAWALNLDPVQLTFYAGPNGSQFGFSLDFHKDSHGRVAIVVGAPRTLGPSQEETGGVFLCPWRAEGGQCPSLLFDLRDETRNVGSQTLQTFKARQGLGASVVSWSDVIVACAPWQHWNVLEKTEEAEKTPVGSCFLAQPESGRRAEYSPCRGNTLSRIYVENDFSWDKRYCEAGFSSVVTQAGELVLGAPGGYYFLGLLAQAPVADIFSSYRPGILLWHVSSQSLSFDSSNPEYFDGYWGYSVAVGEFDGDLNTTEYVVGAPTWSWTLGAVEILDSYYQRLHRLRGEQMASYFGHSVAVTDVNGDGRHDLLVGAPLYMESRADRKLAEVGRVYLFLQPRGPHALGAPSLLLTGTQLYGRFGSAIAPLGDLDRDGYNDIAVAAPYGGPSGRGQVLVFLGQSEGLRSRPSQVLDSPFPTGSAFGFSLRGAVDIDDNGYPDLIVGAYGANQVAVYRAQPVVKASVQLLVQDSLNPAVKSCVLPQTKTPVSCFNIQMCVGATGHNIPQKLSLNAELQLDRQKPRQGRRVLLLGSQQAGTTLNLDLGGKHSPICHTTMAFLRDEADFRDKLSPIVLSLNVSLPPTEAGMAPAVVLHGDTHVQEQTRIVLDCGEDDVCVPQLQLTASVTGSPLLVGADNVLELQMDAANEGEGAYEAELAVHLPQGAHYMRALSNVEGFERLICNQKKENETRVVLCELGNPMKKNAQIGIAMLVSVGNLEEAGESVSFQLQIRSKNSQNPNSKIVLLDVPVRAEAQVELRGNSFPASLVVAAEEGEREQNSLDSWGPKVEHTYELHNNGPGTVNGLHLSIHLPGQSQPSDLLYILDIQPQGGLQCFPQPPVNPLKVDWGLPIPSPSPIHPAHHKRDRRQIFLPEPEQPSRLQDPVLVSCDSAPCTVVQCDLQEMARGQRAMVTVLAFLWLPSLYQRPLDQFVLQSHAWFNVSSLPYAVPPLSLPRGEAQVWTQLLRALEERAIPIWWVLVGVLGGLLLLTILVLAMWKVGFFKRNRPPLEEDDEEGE
UniProt Q13444, residues 421-508: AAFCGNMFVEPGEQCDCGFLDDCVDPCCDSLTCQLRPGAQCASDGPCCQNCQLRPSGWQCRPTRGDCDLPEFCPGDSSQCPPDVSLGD

[3] = molecular target: recombinant integrin αIIbβ3 on CHO cells (αIIbβ3-CHO) (UniProt P08514); experiment: flow cytometry on cells

- binding [1]: binds
Molecule: ADAM-15 disintegrin domain fused to GST (from UniProt Q13444 421-508) (domain or fragment)

- binding [2]: binds
Molecule: soluble recombinant integrin αIIbβ3 (ectodomain) (from UniProt P08514 32-993; P05106 27-718) (receptor)

- binding [3]: binds
Molecule: NRLTIGEGQQHHLGGAKQAGDV (domain or fragment, FITC label, site not stated) [FITC-labelled γC390-411]

From publication doi:10.1101/2024.04.17.589979
